From article PMC10522464
Results are given in words; binding and its absence hold for the method and conditions named. Binding seen in cells or lysates may run through a third protein. Some results given as binding are weak or reduced against the parent protein; the word gives no strength.

Protein sequences, listed by entry. Tags and fused reporters are not part of them.
UniProt E9Q401: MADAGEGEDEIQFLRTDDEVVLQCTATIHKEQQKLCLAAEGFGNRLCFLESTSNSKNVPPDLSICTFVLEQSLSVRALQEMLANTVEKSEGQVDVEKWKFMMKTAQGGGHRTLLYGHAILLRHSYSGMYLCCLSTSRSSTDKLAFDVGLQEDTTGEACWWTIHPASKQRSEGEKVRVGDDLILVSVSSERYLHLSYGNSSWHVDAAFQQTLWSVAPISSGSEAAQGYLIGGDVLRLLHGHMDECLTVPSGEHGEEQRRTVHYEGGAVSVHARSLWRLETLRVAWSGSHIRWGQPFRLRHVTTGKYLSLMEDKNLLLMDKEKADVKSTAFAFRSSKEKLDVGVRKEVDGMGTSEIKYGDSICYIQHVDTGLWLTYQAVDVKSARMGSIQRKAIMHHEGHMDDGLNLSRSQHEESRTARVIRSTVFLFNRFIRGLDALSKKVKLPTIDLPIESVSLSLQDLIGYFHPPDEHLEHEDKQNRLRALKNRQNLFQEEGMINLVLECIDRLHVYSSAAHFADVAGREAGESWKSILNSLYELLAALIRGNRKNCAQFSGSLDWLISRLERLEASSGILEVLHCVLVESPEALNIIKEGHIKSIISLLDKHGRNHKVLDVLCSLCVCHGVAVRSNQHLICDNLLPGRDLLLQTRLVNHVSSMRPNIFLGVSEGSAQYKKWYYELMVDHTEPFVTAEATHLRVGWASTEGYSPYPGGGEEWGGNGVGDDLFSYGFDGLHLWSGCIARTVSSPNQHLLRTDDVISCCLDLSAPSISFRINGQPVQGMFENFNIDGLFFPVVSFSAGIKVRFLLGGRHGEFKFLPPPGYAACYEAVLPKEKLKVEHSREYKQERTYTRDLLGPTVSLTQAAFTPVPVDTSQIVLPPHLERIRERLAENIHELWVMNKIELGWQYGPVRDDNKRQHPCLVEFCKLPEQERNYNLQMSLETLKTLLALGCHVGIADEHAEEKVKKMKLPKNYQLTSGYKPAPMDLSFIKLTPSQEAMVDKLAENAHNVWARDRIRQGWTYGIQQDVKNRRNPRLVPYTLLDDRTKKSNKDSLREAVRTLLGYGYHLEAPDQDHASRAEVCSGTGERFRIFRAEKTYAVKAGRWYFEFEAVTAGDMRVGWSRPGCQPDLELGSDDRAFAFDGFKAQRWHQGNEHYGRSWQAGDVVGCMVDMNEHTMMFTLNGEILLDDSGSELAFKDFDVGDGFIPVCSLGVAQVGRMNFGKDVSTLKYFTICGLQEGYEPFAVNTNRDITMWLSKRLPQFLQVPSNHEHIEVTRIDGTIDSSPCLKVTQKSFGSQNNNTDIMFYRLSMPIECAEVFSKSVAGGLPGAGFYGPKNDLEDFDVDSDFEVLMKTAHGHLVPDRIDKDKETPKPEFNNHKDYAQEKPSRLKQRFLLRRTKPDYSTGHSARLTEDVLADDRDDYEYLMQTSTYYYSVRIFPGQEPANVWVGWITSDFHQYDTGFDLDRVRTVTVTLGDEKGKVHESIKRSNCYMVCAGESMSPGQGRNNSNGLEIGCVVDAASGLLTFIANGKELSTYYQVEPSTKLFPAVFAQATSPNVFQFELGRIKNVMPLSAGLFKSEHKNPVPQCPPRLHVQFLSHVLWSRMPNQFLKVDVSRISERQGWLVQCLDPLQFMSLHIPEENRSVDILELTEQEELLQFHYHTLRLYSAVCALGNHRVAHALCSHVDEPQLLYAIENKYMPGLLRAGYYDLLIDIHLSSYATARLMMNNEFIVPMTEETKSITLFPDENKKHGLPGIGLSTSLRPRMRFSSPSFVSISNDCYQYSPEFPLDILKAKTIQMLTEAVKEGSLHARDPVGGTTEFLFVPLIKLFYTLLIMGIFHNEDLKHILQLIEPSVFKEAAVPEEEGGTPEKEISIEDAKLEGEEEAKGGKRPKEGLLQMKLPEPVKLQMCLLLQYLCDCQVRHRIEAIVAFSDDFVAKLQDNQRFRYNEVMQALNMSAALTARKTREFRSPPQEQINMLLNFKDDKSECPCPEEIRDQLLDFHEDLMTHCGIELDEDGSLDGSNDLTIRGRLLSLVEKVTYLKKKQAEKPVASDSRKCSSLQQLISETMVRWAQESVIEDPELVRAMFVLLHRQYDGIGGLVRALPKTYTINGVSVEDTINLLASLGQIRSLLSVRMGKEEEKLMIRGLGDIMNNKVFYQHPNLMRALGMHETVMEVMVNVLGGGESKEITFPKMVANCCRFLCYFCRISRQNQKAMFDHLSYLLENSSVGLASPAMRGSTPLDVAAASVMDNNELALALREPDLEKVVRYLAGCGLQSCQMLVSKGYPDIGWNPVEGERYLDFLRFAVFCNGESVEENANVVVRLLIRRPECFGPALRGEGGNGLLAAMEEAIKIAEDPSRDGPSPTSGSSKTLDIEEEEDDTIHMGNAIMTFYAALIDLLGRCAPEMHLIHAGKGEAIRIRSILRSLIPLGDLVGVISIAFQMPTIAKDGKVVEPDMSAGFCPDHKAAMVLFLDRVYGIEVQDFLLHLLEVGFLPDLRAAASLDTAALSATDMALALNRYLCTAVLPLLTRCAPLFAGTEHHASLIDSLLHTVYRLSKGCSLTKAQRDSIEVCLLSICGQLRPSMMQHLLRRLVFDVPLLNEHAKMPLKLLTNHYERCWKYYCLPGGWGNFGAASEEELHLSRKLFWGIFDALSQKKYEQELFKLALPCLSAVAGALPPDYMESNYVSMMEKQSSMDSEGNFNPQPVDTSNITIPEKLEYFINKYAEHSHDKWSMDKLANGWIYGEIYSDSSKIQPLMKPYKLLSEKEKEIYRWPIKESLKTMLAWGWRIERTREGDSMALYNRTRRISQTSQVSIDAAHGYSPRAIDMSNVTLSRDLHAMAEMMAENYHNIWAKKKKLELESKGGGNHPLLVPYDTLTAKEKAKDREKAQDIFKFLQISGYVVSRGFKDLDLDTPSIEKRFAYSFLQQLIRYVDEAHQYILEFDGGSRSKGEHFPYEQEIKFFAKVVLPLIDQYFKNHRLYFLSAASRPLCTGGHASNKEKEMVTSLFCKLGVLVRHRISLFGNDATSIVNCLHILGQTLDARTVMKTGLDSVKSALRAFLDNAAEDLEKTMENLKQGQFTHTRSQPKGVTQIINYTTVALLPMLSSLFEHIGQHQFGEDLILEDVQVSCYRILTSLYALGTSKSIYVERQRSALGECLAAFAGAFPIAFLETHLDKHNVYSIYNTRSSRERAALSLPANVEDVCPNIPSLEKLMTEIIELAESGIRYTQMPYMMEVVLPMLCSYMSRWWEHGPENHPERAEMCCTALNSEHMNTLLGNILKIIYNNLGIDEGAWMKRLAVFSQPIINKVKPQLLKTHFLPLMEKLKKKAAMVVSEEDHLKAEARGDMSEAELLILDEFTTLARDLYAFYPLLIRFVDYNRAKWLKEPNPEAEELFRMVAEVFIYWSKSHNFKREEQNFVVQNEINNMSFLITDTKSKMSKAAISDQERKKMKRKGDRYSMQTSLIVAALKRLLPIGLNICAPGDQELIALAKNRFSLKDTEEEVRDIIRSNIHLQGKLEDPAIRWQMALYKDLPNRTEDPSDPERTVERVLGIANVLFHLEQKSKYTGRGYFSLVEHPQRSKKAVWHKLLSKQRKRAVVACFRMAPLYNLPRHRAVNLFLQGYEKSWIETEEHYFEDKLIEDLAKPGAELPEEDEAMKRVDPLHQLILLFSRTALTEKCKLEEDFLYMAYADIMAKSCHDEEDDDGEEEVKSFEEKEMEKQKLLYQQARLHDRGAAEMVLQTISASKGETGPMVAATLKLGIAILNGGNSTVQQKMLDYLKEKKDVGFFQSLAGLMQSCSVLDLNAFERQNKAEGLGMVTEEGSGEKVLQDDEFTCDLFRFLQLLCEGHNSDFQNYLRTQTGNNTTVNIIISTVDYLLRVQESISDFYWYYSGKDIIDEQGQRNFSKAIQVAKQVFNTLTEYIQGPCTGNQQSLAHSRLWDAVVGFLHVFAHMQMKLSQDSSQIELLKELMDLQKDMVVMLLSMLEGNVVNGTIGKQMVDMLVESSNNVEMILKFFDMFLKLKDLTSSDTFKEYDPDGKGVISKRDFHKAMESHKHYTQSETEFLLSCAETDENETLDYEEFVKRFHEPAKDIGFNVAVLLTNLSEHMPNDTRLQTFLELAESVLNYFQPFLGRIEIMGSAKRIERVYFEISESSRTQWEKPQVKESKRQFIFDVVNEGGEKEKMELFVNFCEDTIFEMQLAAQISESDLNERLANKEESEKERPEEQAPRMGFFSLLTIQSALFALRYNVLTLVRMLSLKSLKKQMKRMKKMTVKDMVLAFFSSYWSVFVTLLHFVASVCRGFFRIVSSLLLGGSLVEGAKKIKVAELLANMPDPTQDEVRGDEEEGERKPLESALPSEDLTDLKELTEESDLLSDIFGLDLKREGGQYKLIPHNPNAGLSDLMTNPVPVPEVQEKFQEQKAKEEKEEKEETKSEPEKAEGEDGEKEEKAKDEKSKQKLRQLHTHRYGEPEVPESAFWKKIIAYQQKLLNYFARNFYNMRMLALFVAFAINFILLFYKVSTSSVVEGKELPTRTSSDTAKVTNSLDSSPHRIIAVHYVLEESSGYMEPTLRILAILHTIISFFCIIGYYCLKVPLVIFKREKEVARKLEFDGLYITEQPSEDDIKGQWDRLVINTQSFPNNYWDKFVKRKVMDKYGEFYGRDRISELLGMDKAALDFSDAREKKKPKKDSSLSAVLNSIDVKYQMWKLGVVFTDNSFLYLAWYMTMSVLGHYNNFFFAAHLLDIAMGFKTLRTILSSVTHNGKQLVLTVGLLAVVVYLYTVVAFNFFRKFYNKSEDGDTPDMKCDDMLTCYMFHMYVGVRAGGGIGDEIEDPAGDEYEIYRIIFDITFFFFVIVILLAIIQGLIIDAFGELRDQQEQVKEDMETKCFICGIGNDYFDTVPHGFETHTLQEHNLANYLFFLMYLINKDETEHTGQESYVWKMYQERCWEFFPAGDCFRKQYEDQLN

B1: trimeric intracellular cation channel TRIC-A (protein, UniProt Q3TMP8 1-298)
chain: MDLMSALSLGELALSFSRVPLFPVFDLSYFIVSIIYLKYEPGAVELSRRHPVASWLCAMLHCFGSYILADLLLGEPIIDYFSNSSSILLASGVWYLIFFCPLDLFYKCVCFLPVKLIFVAMKEVVRVRKIAVGIHHAHHHYHHGWFIMIATGWVKGSGVALLSNVEQLLRGVWKPETNEILHMSFPTKASLYGAILFTLQQTRWLPVSKASLIFVFTMFMVSCKVFLTATHSHSSPFDILEGYICPVLFGATWGGDHHHDNHGAPHGMGLGTQHSGLPAKAKEELGEGSRKKKTKKAD
B2: trimeric intracellular cation channel TRIC-B (protein, UniProt Q9DAV9 1-292)
chain: MEYPWDDLTLAFSRTSMFPFFDIAHYLVSVMALKQRPGAVAAAWNNPLASWLSAMLHCFGGGILSCMLLAESPLKFLTNHTNILLASSIWYIVFFCPRDLVSQGYSYQPIQFLAAGMKEVTRTWKIVGGVSDANSYYRNAWIVMIVVGWARGAGGAVVTACEQLLKGDWKPEGDEWLKMSFPCKITLLGSIMFTFQHTRHLAISKHDLMFLYTIFLVTIKVTMMMTKDTAVTLTPFEDTLTRMLFGRRQQQQFSSSEKKTEVKPSSNGSASSASKRGAEPSGGAKRHAKKED

Molecular target: streptavidin-binding peptide (SBP)-tagged RyR2 (mouse) (UniProt E9Q401)
Test: co-IP; lysate of SBP-RyR2 HEK293 cells infected with TRIC-A or TRIC-B baculovirus; IP buffer (0.15 M NaCl, 20 mM MOPSO pH 7.0, 0.015% Tween-20) with 0.5% CHAPS, diluted to 0.1% CHAPS; anti-SBP monoclonal antibody (SB19-C4) or control IgG on Dynabeads protein G, 2 h at room temperature; TRIC-A and TRIC-B detected by Western blot

Binder	binding
B1	binds
B2	binds
